Results on one molecule are retold here after PMC11402830.

Results are given in words; binding and its absence hold for the method and conditions named. Some results given as binding are weak or reduced against the parent protein; the word gives no strength.

This experiment deals with T1, human peptidyl arginine deiminase 6 (human), Q6TGC4.
T1 chain: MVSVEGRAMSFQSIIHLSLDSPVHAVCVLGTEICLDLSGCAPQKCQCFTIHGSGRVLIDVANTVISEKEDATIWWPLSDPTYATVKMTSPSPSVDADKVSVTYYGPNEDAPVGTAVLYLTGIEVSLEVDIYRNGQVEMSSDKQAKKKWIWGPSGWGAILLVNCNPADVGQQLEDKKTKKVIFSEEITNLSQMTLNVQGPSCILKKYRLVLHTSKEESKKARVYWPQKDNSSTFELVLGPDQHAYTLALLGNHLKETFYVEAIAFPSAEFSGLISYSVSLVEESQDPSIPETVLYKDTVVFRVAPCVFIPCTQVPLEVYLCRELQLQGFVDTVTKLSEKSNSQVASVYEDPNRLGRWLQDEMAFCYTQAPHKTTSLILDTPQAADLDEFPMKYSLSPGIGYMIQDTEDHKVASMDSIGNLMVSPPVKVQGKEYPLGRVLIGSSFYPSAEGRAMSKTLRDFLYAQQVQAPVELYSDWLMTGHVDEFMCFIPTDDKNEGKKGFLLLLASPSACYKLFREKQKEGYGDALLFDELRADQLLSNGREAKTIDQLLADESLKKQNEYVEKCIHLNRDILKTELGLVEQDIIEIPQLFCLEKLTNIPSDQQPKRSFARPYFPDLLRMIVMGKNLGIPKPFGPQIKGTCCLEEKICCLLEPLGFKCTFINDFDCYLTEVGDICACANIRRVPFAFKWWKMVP
The experiment can be described thus: crystal structure; hPADI6 at 5 mg/mL, sitting drop at 20 °C, 20.9 % PEG3350, 0.2 M KSCN, 0.1 M Bis-Tris propane pH 6.5; no Ca2+; 2.44 Å; two chains (A, B); both purified. As to conditions: remark: other sources report otherwise.

B1: human peptidyl arginine deiminase 6, Q6TGC4 1-694 (natural protein)
chain: MVSVEGRAMSFQSIIHLSLDSPVHAVCVLGTEICLDLSGCAPQKCQCFTIHGSGRVLIDVANTVISEKEDATIWWPLSDPTYATVKMTSPSPSVDADKVSVTYYGPNEDAPVGTAVLYLTGIEVSLEVDIYRNGQVEMSSDKQAKKKWIWGPSGWGAILLVNCNPADVGQQLEDKKTKKVIFSEEITNLSQMTLNVQGPSCILKKYRLVLHTSKEESKKARVYWPQKDNSSTFELVLGPDQHAYTLALLGNHLKETFYVEAIAFPSAEFSGLISYSVSLVEESQDPSIPETVLYKDTVVFRVAPCVFIPCTQVPLEVYLCRELQLQGFVDTVTKLSEKSNSQVASVYEDPNRLGRWLQDEMAFCYTQAPHKTTSLILDTPQAADLDEFPMKYSLSPGIGYMIQDTEDHKVASMDSIGNLMVSPPVKVQGKEYPLGRVLIGSSFYPSAEGRAMSKTLRDFLYAQQVQAPVELYSDWLMTGHVDEFMCFIPTDDKNEGKKGFLLLLASPSACYKLFREKQKEGYGDALLFDELRADQLLSNGREAKTIDQLLADESLKKQNEYVEKCIHLNRDILKTELGLVEQDIIEIPQLFCLEKLTNIPSDQQPKRSFARPYFPDLLRMIVMGKNLGIPKPFGPQIKGTCCLEEKICCLLEPLGFKCTFINDFDCYLTEVGDICACANIRRVPFAFKWWKMVP
Consider B1, for which the binding entry is on record as “binds”.
